Literature values in PMC4190524, “The Flux of Select NSAIDs through Silicone Membranes from Mineral Oil” (Pharmaceutics, 2014).

Design: method as in Wenkers and Lippold 1999 [6]
Conditions: log maximum flux through human skin in vivo from mineral oil; ref Wenkers and Lippold 1999 [6]; cited from earlier work

COc1ccc2cc([C@H](C)C(=O)O)ccc2c1 [Naproxen]
log JMHMO: −2.00 µmol cm^−2 h^−1
